Source: PubChem BioAssay AID2061321 (National Center for Advancing Translational Sciences (NCATS), 2025)
The inconclusive results got no clear call from the source; some entries with a clear call stand among them for comparison. Potencies beside an inconclusive call are fits to weak or partial responses and may not hold up. Active and inactive are the calls of the source. The call rests on the fitted dose curve; in most records, active means well fitted inhibition curve with a large enough effect; inconclusive means small, poorly fitted or top-dose-only effect; inactive means flat fitted curve, though single readings scatter. Non-standard residues stand in square brackets, D forms with d. Residues, ends and D or L forms follow the SMILES beside them. *: point of attachment. Dolaproine = CO[C@@H]([C@@H]1CCCN1)[C@@H](C)C(=O)O; Dil = CC[C@H](C)[C@H](NC)[C@@H](CC(=O)O)OC; NMe2Val = CC(C)[C@@H](C(=O)*)N(C)C; X1 = C[C@@H](N*)[C@@H](O)c1ccccc1; NMeV = CN[C@H](C(=O)O)C(C)C

experiment: Identification of antibody-drug conjugate (ADC) payloads which are substrates of ATP-binding cassette drug efflux transporters: ABCG2-H460 cell line; conditions: H460 MX20 (ABCG2) viability, CellTiter-Glo, 48 h
Description: Antibody-drug conjugates (ADCs) feature an antibody recognizing a specific protein joined to a potent toxic payload. Numerous antibody-drug conjugates have received FDA approval; however, clinical resistance arises. Resistance mechanisms include decreased expression or mutation of the antibody target, impaired payload release, or increased expression of ATP-binding cassette (ABC) efflux transporters associated with multidrug resistance. We therefore sought to characterize the interaction of ABC multidrug transporters with ADC payloads. We performed a high-throughput screen with 27 common ADC payloads using cells lines expressing ABC transporters P-glycoprotein (P-gp, encoded by ABCB1) or ABCG2 (encoded by ABCG2). Confirmatory assays were also performed using cells transfected to express P-gp, ABCG2, or MRP1 (encoded by ABCC1). Several commonly used ADC payloads were substrates of P-gp, including calicheamicin gamma1, monomethyl auristatin E, DM1, and DM4. All the pyrrolobenzodiazepines tested - SJG136, SGD-1882, SG2057, and SG3199 - were substrates of P-gp, ABCG2, and MRP1. […] These findings highlight the risk of transporter-mediated resistance with certain ADC payloads and underscore the importance of selecting payloads that evade ABC transporter recognition in future ADC development.
HEK-293 cells were transfected with empty vector (pcDNA) or vector containing the human ABCB1 (MDR-19), ABCG2 (R-5), or ABCC1 gene (MRP1) and were maintained in EMEM with 2 mg/mL G418 added to maintain transporter expression. The HeLa derivative KB-3-1 and the P-gp overexpressing KB-8-5-11 subline were maintained in DMEM; KB-8-5-11 additionally received 100 ng/mL colchicine. H460 parental cells were obtained from the Division of Cancer Treatment and Diagnosis Tumor Repository, National Cancer Institute at Frederick, MD and were cultured in RPMI. The ABCG2 expressing subline H460 MX20 was generated by selecting H460 cells in 20 nM mitoxantrone. Media in all cases was supplemented with 10% FBS and 1% penicillin-streptomycin. We explored 27 common ADC payloads, in two orthogonal, paired cell line sets-a drug selected and transfected set for each transporter--to identify substrates of the ABC transporters P-gp and ABCG2. Compounds were sourced from Levena Biopharma (San Diego, CA), Selleck Chem (Houston, TX), ChemieTek (Indianapolis, IN), or Microsource Discovery Systems (Gaylordsville, CT). Screening was performed as previously described. Briefly, cells were plated at a density of 500 cells/well in 1536 well plates with compounds added using a 1536-head pin tool (Kalypsys, San Diego CA). Cells were incubated with cytotoxic drugs and processed with CellTiter Glo reagent (Promega, Madison, WI) to determine viability after 48 hours. P-gp substrates were identified by comparing compound activity between paired sets of low-expressing (sensitive) and over-expressing (resistant) cell lines.

Compound | Potency
CC[C@@]1(O)C(=O)OCc2c1cc1n(c2=O)Cc2cc3ccccc3nc2-1 | active: 9.5 nM
CC[C@H](C)[C@@H]([C@@H](CC(=O)N1CCC[C@H]1[C@H](OC)[C@@H](C)C(=O)N[C@@H](Cc1ccccc1)C(=O)O)OC)N(C)C(=O)[C@@H](NC(=O)[C@H](C(C)C)N(C)C)C(C)C (NMe2Val-V[Dil][Dolaproine]F-OH) | active: 42.3 nM
CC[C@H](C)[C@H](NC(=O)[C@H]1CCCCN1C)C(=O)N(C)[C@H](C[C@@H](OC(C)=O)c1nc(C(=O)O)cs1)C(C)C | inconclusive: 1690 nM [falling, full curve]
CC[C@H](C)[C@@H]([C@@H](CC(=O)N1CCC[C@H]1[C@H](OC)[C@@H](C)C(=O)N[C@H](C)[C@@H](O)c1ccccc1)OC)N(C)C(=O)[C@@H](NC(=O)[C@@H](NC)C(C)C)C(C)C (H-[NMeV]V[Dil][Dolaproine]-X1) | inconclusive: 1.3 nM [falling, full curve]
CC[C@H](C)[C@H](NC(=O)[C@H]1CCCCN1C)C(=O)N(C)[C@H](C[C@@H](OC(C)=O)c1nc(C(=O)N[C@@H](Cc2ccccc2)C[C@H](C)C(=O)O)cs1)C(C)C | inconclusive: 0.8 nM [full curve]
COc1cc2cc(c1Cl)N(C)C(=O)C[C@H](OC(=O)[C@H](C)N(C)C(=O)CCC(C)(C)S)[C@]1(C)OC1[C@H](C)C1C[C@@](O)(NC(=O)O1)[C@H](OC)/C=C/C=C(\C)C2 (stereo partly drawn) | inconclusive: 4.2 nM [falling, full curve]
COc1cc2cc(c1Cl)N(C)C(=O)C[C@H](OC(=O)C(C)C)[C@]1(C)O[C@H]1[C@H](C)[C@@H]1C[C@@](O)(NC(=O)O1)[C@H](OC)C=CC=C(C)C2 | inconclusive: 0.4 nM [full curve]
COc1cc2cc(c1Cl)N(C)C(=O)C[C@H](OC(=O)[C@H](C)N(C)C(=O)CCS)[C@]1(C)OC1[C@H](C)C1C[C@@](O)(NC(=O)O1)[C@H](OC)/C=C/C=C(\C)C2 (stereo partly drawn) | inconclusive: 7.5 nM [falling, full curve]

A draw from above in order of heavy-atom count, rising.
Compound | Potency
CC[C@H](C)[C@H](NC(=O)[C@H]1CCCCN1C)C(=O)N(C)[C@H](C[C@@H](OC(C)=O)c1nc(C(=O)O)cs1)C(C)C | inconclusive: 1690 nM [falling, full curve]
COc1cc2cc(c1Cl)N(C)C(=O)C[C@H](OC(=O)[C@H](C)N(C)C(=O)CCS)[C@]1(C)OC1[C@H](C)C1C[C@@](O)(NC(=O)O1)[C@H](OC)/C=C/C=C(\C)C2 (stereo partly drawn) | inconclusive: 7.5 nM [falling, full curve]
CC[C@H](C)[C@H](NC(=O)[C@H]1CCCCN1C)C(=O)N(C)[C@H](C[C@@H](OC(C)=O)c1nc(C(=O)N[C@@H](Cc2ccccc2)C[C@H](C)C(=O)O)cs1)C(C)C | inconclusive: 0.8 nM [full curve]
